For two molecules, binding results are on record in paper PMC8185148.

No constants are given. Whether binding was seen depends on the method and setting. In cells and extracts the contact can be indirect. A yes stands for co-enrichment or nearness to the bait. Other partners may have been found.

This test addresses GFP-fused PCV3 Cap (capsid protein) (porcine circovirus type 3 (PCV3)). Put plainly: affinity purification with mass spectrometry; PK15 cells transfected with GFP-Cap or GFP; lysed in NP-40 buffer (10 mM Tris pH 7.5, 150 mM NaCl, 0.5% NP-40, 0.5 mM EDTA); anti-GFP mAb conjugated beads (GFP-trap); SDS-PAGE, silver stain, differential bands excised for LC-MS/MS.

B1: heterogeneous nuclear ribonucleoprotein hnRNP F (protein, UniProt F1RG16 1-414)
chain: MMLGPEGGEGFVVKLRGLPWSCSVEDVQNFLSDCTIRDGAAGVHFIYTREGRQSGEAFVELESEDDVKMALKKDRESMGHRYIEVFKSHRTEMDWVLKHSGPNSADTANDGFVRLRGLPFGCTKEEIVQFFSGLEIVPNGITLPVDPEGKITGEAFVQFASQELAEKALGKHKERIGHRYIEVFKSSQEEVRSYSDPPLKFMSVQRPGPYDRPGTARRYIGIVKQAGLERMRSGAYSAGYGGYEEYSGLSDGYGFTTDLFGRDLSYCLSGMYDHRYGDGEFTVQSTTGHCVHMRGLPYKATENDIYNFFSPLNPVRVHIEIGPDGRVTGEADVEFATHDEAVAAMSKDRANMQHRYIELFLNSTTGASNGAYSSQMMQGMGVSTQSTYSGLESQSVSGCYGAGYGGQNSMGGYD
For the molecule B1, the binding entry is “binds”.

B2: MX1 (protein, UniProt P27594 1-663)
chain: MVYSSCESKEPDSVSASNHLLLNGNDELVEKSHKTGPENNLYSQYEEKVRPCIDLIDSLRALGVEQDLALPAIAVIGDQSSGKSSVLEALSGVALPRGSGIVTRCPLVLKLKKLVNEEDEWKGKVSYRDSEIELSDASQVEKEVSAAQIAIAGEGVGISHELISLEVSSPHVPDLTLIDLPGITRVAVGNQPYDIEYQIKSLIKKYICKQETINLVVVPCNVDIATTEALRMAQEVDPEGDRTIGILTKPDLVDKGTEDKIVDVARNLVFHLKKGYMIVKCRGQQDIQEQLSLAKALQKEQAFFENHAHFRDLLEEGRATIPCLAERLTSELIMHICKTLPLLENQIKESHQKITEELQKYGSDIPEDESGKMFFLIDKIDAFNSDITALIQGEELVVEYECRLFTKMRNEFCRWSAVVEKNFKNGYDAICKQIQLFENQYRGRELPGFVNYKTFETIIKKQVSVLEEPAVDMLHTVTDLVRLAFTDVSETNFNEFFNLHRTAKSKIEDIKLEQEKEAETSIRLHFQMEQIVYCQDQVYRGALQKVREKEAEEEKNRKSNQYFLSSPAPSSDPSIAEIFQHLIAYHQEVGKRISSHIPLIIQFFILRTFGQQLQKSMLQLLQNKDQYDWLLRERSDTSDKRKFLKERLMRLTQARRRLAKFPG
As for B2, the binding result is on record as “binds”.
